These are yes or no findings as the source states them, for the method shown. Binding can be weak; no strength is given. For some assays here: In cells and extracts the contact can be indirect. For some assays here: Where a sequence is shown, tags or fusion partners need not be part of it.
T1: cLUC-SlHY5 (tomato (Solanum lycopersicum)) (UniProt Q9SM50)
T1 sequence: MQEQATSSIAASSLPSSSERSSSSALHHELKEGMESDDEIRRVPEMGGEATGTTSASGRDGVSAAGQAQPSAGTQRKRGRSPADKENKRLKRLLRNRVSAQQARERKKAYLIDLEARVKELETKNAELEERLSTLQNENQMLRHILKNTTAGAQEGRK

B1: SlHY5 (protein, UniProt Q9SM50 1-158)
chain: T1 sequence

Legend:
[1] = biological target: T1, cLUC-SlHY5 (tomato (Solanum lycopersicum)); experiment: split reporter; firefly luciferase complementation imaging (LCI); nLUC and cLUC fusions co-expressed in leaves of 6-week-old N. benthamiana by Agrobacterium GV3101 infiltration; imaged after 1 d darkness at 22 °C and 1 d 16-h light/8-h dark
[2] = biological target: SlAN2 (tomato (Solanum lycopersicum)); experiment: two-hybrid; CDSs in pGADT7 and pGBKT7, bait and prey vectors co-transformed into Y2Hgold; patched on SD/Ade/His/Leu/Trp plates with X-alpha-Gal, 28 °C, 3 days; which protein was bait is not told

Molecule | binding [1] | binding [2]
SlBBX24-nLUC (tomato (Solanum lycopersicum)) | binds | –
B1 | – | binds

Source: article PMC10218277
